# No constants are given. Whether binding was seen depends on the method and setting. In cells and extracts the contact can be indirect. Some results given as binding are weak or reduced against the parent protein; the word gives no strength. Tags and fused reporters may be left off the sequences shown.
# The chains behind the UniProt entries cited, without tags or fusion partners.
# UniProt P53396: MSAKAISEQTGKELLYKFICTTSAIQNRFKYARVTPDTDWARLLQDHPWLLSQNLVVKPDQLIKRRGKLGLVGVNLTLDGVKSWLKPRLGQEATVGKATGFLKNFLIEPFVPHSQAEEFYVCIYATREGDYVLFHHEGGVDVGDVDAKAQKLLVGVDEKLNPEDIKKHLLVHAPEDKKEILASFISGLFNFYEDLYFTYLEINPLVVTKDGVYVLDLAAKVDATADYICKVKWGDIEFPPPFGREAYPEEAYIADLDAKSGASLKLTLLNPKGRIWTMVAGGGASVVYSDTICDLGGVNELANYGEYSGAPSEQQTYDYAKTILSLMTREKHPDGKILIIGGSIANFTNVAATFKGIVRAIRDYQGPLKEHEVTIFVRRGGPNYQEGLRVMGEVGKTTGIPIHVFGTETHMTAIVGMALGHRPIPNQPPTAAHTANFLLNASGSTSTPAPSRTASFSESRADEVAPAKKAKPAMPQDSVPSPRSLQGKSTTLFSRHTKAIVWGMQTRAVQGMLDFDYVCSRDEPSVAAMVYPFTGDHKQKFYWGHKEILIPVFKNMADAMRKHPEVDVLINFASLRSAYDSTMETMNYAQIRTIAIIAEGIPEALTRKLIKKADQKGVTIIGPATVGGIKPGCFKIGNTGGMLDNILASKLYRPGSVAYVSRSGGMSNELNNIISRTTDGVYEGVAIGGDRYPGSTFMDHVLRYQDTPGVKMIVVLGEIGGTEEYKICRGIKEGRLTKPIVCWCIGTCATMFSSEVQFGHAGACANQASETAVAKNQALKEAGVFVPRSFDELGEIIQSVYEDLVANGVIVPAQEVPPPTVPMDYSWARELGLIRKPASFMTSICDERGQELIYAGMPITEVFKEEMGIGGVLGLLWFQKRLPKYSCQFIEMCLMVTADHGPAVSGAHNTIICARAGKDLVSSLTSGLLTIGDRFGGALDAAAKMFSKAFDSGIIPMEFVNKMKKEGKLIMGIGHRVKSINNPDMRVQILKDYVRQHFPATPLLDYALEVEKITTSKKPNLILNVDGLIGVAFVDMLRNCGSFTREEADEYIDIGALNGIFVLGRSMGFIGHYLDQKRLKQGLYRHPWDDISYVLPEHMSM
# UniProt P12004: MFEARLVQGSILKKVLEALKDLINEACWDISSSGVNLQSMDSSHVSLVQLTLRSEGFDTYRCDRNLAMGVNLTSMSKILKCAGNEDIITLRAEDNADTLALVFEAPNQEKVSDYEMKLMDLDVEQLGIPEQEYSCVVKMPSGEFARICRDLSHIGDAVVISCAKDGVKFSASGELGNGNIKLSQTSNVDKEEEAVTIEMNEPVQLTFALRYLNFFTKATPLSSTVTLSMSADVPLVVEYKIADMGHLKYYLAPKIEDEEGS
# Target: T1, 3 × Flag-FBXO43 (F-box only protein 43) (UniProt Q4G163)
# T1 sequence: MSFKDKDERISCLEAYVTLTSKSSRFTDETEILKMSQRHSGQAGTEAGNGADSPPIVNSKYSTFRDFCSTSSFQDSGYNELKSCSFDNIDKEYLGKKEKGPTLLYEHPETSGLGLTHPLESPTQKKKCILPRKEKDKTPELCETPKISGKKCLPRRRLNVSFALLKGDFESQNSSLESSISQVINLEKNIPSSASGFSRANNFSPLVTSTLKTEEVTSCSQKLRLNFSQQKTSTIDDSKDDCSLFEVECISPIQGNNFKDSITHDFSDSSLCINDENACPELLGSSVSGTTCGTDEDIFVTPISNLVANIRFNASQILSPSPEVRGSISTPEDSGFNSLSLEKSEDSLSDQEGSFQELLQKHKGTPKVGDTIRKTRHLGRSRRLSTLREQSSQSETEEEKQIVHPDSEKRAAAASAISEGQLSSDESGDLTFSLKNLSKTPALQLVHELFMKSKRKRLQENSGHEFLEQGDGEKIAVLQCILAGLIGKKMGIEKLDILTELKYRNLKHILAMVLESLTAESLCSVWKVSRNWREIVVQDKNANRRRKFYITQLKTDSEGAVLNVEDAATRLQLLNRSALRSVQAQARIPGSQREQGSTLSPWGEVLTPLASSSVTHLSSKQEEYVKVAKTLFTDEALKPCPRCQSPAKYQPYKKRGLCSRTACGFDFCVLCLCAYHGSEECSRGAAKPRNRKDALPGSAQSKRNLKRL
# Assay: co-IP; lysate (IP buffer) of MDA-MB-231 cells overexpressing 3 × Flag-FBXO43 incubated with Flag beads for 24 h, washed with TBS, eluted with 3 × Flag peptide at 4 °C, western blot
row,Substance,binding
1,ACLY (from UniProt P53396 1-1101),binds
2,PCNA (from UniProt P12004 1-261),binds
3,VCP (from UniProt P55072 1-806),binds

# — publication PMC8513237
